Measurements as given in patent US9987276B2.
The match of structure and compound is tentative.

Tests used:
Format in all cases: cell-based
DOHH2 = experiment: B cell lymphoma proliferation assay, DOHH2; conditions: read-out: EC50 (μM) DOHH2
WSU-DLCL2 = experiment: B cell lymphoma proliferation assay, WSU-DLCL2; conditions: read-out: EC50 (μM) WSU-DLCL2
DHL4 = experiment: B cell lymphoma proliferation assay, DHL4; conditions: read-out: EC50 (μM) DHL4

Measured: EC50

C=CC(=O)N1CCOc2ccc(Nc3nc(Nc4ccc5cnn(C)c5c4)ncc3C(C)=O)cc21
1 to 10 µM: DOHH2 | WSU-DLCL2 | DHL4
